Results are given in words; binding and its absence hold for the method and conditions named. A result given as binding can be weak or reduced; the word gives no strength.
Target: recombinant CLEC-2 carbohydrate-recognition domain (CRD)
Experiment: SPR; BIACORE T-200; recombinant CLEC-2 CRD immobilised through amine coupling to a CM5 sensor chip; (glyco)peptides 0, 3.125, 6.25, 12.5, 25, 50, 100 and 200 μM injected at 30 μl/min; both purified

- binding: binds
Binder: SSLEDSVTPTK (disialyl-core 1 O-glycan on T105: NeuAcα2-3Galβ1-3(NeuAcα2–6)GalNAcα1-O-T105) [O-glycosylated hDectin-1 peptide S98-K108 with disialyl-core 1 O-glycan on T105]
